# Test results taken from US10934255B2, “Nrf and HIF activators/HDAC inhibitors and therapeutic methods using the same” (THE BOARD OF TRUSTEES OF THE UNIVERSITY OF ILLINOIS, priority 2017, dated 2021).
# Some entries share one result that the patent states for a list of compounds.
# Test system: HepaRG "hepatocytes"
# Test: liver-on-a-chip assay, viability of HepaRG hepatocytes by MTT
# Assay type: cell-based
# Conditions: 48 h
row,Structure (SMILES),Concentration with no toxicity
1,"O=C(NO)c1ccc(CN2C(=O)C(F)(F)c3ccccc32)cc1 [II-ING-66, 4-((3,3-Difluoro-2-oxoindolin-1-yl)methyl)-N-hydroxybenzamide]",≤ 200 µM
2,"O=C(NO)c1ccc(CN2CCc3ccc(Cl)cc32)cc1 [II-ING-6, 4-((6-Chloroindolin-1-yl)methyl)-N-hydroxybenzamide]",≤ 200 µM
